# Reference: PubChem BioAssay AID540275 (National Center for Advancing Translational Sciences (NCATS), 2011)
# By UniProt entry, the sequences of proteins in these tests, tags left out.
# UniProt Q8NER1, whole entry, looked up: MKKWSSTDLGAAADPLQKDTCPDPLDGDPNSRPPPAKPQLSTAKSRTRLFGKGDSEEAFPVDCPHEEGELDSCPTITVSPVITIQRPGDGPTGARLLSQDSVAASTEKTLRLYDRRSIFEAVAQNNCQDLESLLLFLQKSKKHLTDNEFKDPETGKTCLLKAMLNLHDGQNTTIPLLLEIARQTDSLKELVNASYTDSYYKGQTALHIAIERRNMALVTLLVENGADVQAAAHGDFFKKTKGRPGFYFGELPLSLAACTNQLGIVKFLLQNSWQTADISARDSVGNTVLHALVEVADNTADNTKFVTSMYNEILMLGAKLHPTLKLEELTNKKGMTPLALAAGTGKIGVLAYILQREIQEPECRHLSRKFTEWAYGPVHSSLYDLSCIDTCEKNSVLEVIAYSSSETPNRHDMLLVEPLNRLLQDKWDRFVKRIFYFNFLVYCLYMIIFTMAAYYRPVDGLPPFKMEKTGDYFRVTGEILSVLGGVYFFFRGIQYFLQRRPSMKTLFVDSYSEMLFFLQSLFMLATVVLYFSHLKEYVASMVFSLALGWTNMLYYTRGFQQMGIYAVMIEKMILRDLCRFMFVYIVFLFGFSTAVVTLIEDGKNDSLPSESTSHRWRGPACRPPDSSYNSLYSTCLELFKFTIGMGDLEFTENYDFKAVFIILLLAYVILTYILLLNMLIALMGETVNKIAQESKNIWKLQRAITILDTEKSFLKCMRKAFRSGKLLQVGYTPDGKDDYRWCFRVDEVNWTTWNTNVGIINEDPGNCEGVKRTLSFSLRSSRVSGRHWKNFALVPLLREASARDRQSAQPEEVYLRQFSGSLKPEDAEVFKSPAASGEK
# Among all 320,000 compounds or so, about 620 (0.19%) were called active. The inconclusive results got no clear call from the source; some entries with a clear call stand among them for comparison. Rule as the data show it: active = activation above about 80%; inconclusive = between about 30% and that limit; inactive = weaker than that.
# Target: Transient receptor potential cation channel subfamily V member 1 (Homo sapiens) (UniProt Q8NER1)
# Experiment: HTS Assay for Compounds that Act as Agonists of the Vanilloid Receptor 1; also: 0% is about no effect
# Settings: TRPV1-expressing cells, Fluo-8 calcium influx, agonist mode; at 8.33 µM, hits give high values
# Summary of the method: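 Fluo-8 calcium influx in TRPV1-expressing cells, kinetic read (ex 480/em 520 nm). Compound added and read 3 min for agonist activity, followed by capsaicin at EC20 final and 2 min further read for enhancement.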
row,Structure (SMILES),activation
1,c1ccc(-c2nnc(SCC3CCCCO3)nc2-c2ccccc2)cc1 (stereo not given),inconclusive: 49%
2,CCn1nc(C)cc1C(=O)N1CCCC(Nc2ccc(F)c(F)c2)C1 (stereo not given),inconclusive: 42.2%
3,COc1ccc(C(=O)Nc2cc3c(cc2Cl)OCCCO3)cc1,inconclusive: 33%
4,CCOc1ccc(-c2nnn(CC(=O)c3ccc4c(c3)OCCO4)n2)cc1OCC,inconclusive: 41.1%
5,CC(/C=N\NC(=O)CN1CCN(S(=O)(=O)c2ccc(C)cc2)CC1)=C\c1ccccc1,inactive: 20.5%
6,COc1c(C)cc(Br)cc1C(=O)Nc1cccc(NC(=O)c2ccco2)c1,inconclusive: 45.6%
7,CCC(=O)Nc1ccc(C(=O)N/N=C/c2cc(Br)c(OC)cc2OC)cc1,inconclusive: 54.5%
8,COc1cccc(CCNC(=O)C2CCC(=O)N(C3CC3)C2)c1OC (stereo not given),inactive: 1.56%
9,CCN(CC)c1ccc(C(=O)Nc2cccc(F)c2)cc1,inconclusive: 59.9%
10,CC(=O)NCCCc1nc2ccccc2n1Cc1cc(C)ccc1C,active: 89%
11,Cc1ccnc(NC(=O)COC(=O)C23CC4CC(CC(C4)C2)C3)n1,inconclusive: 36.8%
12,COc1ccc([C@H]2CC(=O)C=C(c3cccc4c3Oc3ccccc3S4)C2)cc1,inconclusive: 46.1%
13,CCCCCn1c(SCC2CCCO2)nc2cc(C(=O)N3CCC(C(N)=O)CC3)ccc2c1=O (stereo not given),inconclusive: 61.9%
14,N#Cc1cccc(CN2CCCN(Cc3ccc(F)cc3)S2(=O)=O)c1,inconclusive: 42.7%
15,Cc1ccc2nc(-c3ccccn3)cc(C(=O)NC(C)C(C)(C)C)c2c1 (stereo not given),inconclusive: 39.2%
16,CSc1ccc(/C=N/NC(=O)c2cccc(Cl)c2)cc1,inconclusive: 61.9%
17,Cc1ccc(C(=O)Nc2ccc(C(=O)N/N=C/c3ccc(C)o3)cc2)cc1,inconclusive: 58.4%
18,CCC(CC)NC(=O)Cc1ccccc1[N+](=O)[O-],inconclusive: 37.1%
19,Cc1scc(C(=O)N/N=C/c2ccsc2)c1C,inconclusive: 48.1%
20,Cc1ccc(NC(=O)c2ccc3c(c2)NC(=O)CS3)nc1,inconclusive: 50.2%
21,Cc1ccccc1SCCNC(=O)c1ccccc1Br,inconclusive: 36.7%
22,CC(=O)C1=C(C)NC(SCC(=O)c2ccccc2)=C(C#N)C1c1ccco1 (stereo not given),inactive: 6.31%
23,O=C(O)CSc1ccc2ccccc2n1,inactive: 1.05%

row,Structure (SMILES),activation
1,O=C(COC(=O)CSc1ccc(F)cc1)NCCCc1ccccc1,inconclusive: 39%
2,O=C(Nc1ccccc1)c1cc2ccc3ccccc3c2s1,inconclusive: 59.6%
3,Cc1ccc(OCC(=O)N2CCOCC2)cc1C,inconclusive: 36.9%
4,O=C(C1CCN(S(=O)(=O)c2cc(Cl)ccc2Cl)CC1)N1CCOCC1,inconclusive: 67.4%
5,Cc1ccc(S(=O)(=O)NCc2ccc(C(=O)NCCCN3CCC(Cc4ccccc4)CC3)cc2)cc1,inactive: 9.44%
6,O=C(CC(=O)N/N=C/c1ccc(C(=O)O)cc1)NCCc1ccccc1,inactive: 1.46%
7,CCCCC1(CCCC)NC(=S)N(Nc2ccc(C)cc2)C1=O,inconclusive: 31.2%
8,CC(C)Cc1nnc(NC(=O)Cc2cccs2)s1,inactive: -0.138%
9,C/C(=N/OCO/N=C(/C)c1ccc(F)cc1)c1ccc(F)cc1,inconclusive: 40.4%
10,CC(Oc1ccccc1F)C(=O)Nc1ccc2ccccc2c1 (stereo not given),inconclusive: 53%
11,O=C(/C=C/c1ccccc1)OCc1cnc(Cl)s1,inconclusive: 30.8%
12,COc1cc(-c2n[nH]c(=O)o2)cc(OC)c1OC,inactive: -2.29%
13,CCOc1cccc(C(=O)Nc2ccc(N3CCCC3)cc2)c1,inconclusive: 44.8%
14,CC(=O)N1CCc2c(sc(NC(=O)C3CC3)c2-c2nc3ccccc3s2)C1,inconclusive: 50.6%
15,C=CCN(c1ccccc1)S(=O)(=O)c1ccc2[nH]cc(C(=O)NCCOC)c(=O)c2c1,inactive: -0.795%
16,CC(C)c1cccc(C2=CC(=O)C[C@H](c3ccc4c(c3)OCO4)C2)c1,inconclusive: 55.1%
17,COc1ccc(-c2[nH]ncc2/C=C(/C#N)C(=O)NC2CCCCC2)cc1,inconclusive: 53.5%
18,O=C(N/C(=C/c1ccc(Cl)cc1)c1nc2ccccc2[nH]1)c1ccco1,inconclusive: 44.7%
19,COc1cc(/C=C2\SC(=O)N(c3ccccc3Cl)C2=O)cc([N+](=O)[O-])c1O,inactive: -1.62%
20,CC(C)c1cccc(C(C)C)c1NC(=O)CNCc1ccccc1F,inconclusive: 38.5%
21,COc1cccc(-n2cc(CN(C)Cc3nc(Cc4cccc(F)c4)no3)cn2)c1,inconclusive: 31%
22,COc1cccc(COc2ccc3ccc(=O)oc3c2)c1,inactive: 0.395%
23,Cc1nn(-c2ccccc2)c2sc(C(=O)OCn3nnc4ccccc4c3=O)cc12,inactive: -3.34%

row,Structure (SMILES),activation
1,CC(C)CN(C#N)c1nc(N2CCOCC2)nc(N2CCOCC2)n1,inconclusive: 36.9%
2,COC(=O)c1cn(NC(=O)CCC2CCCC2)c(=O)c2ccccc12,inconclusive: 38%
3,O=C(Nc1cnccn1)c1cccc(C(F)(F)F)c1,inconclusive: 31.8%
4,CSc1ccccc1-c1nnc(-c2ccc(Cl)cc2)o1,inconclusive: 31.5%
5,COC(=O)CC/C(=N/Nc1ccc(Cl)c(Cl)c1)C(=O)OC,inactive: 5.04%
6,N#Cc1ccc(Oc2cccc3cccnc23)c([N+](=O)[O-])c1,inactive: 3.64%
7,COc1cccc(-c2nnc(NC(=O)c3ccc(S(=O)(=O)N4CC(C)OC(C)C4)cc3)o2)c1 (stereo not given),inactive: -6.85%
8,COc1ccc(C(CNC(=O)c2ccc(Cl)c(NC(=O)c3cccs3)c2)N2CCCC2)cc1 (stereo not given),inactive: 2.56%
9,COc1ccc(CNC(=O)C2CCN(S(=O)(=O)c3ccc(Br)s3)CC2)cc1,inconclusive: 35.1%
10,Cc1ccccc1NS(=O)(=O)c1ccc(C)c(NS(C)(=O)=O)c1C,inactive: -3.34%
11,O=C(Nc1ccc(Cl)c(S(=O)(=O)Nc2ccccc2Cl)c1)c1cccs1,inconclusive: 30.1%
12,Cc1ccccc1OCC(=O)Nc1ccc([N+](=O)[O-])cc1,inactive: 3.65%
13,Cc1cccc(-c2noc(CCC(=O)Nc3ccccc3)n2)c1,inconclusive: 57.6%
14,O=C(Nc1ccncc1)c1ccc(Cl)c([N+](=O)[O-])c1,inconclusive: 74.1%
15,COc1ccc(C(=O)N/N=C/c2ccc(OC)c(CN3CCCc4ccccc43)c2)cc1,inactive: 3.86%
16,Cc1ccn2c(NC(=O)C(C)(C)Oc3ccc(Cl)cc3)c(-c3cccs3)nc2c1,inconclusive: 44.5%
17,C=C(C)C1CC=C(C)/C(=N/NC(=O)COc2ccccc2C)C1 (stereo not given),inconclusive: 33.1%
18,CCOC(=O)c1c(NC(=O)C2CCCN(S(=O)(=O)c3ccccc3)C2)sc2c1CCCC2 (stereo not given),inactive: -6.16%
19,CCOC(=O)[C@H]1[C@H]2COc3ccc(Br)cc3[C@@H]2N2C(=O)CN(Cc3ccc(OC)cc3)C(=O)[C@@]12C,inconclusive: 32.6%
20,O=C1c2ccccc2C(=O)N1OS(=O)(=O)c1ccc(F)cc1,inactive: -1.17%
21,O=[N+]([O-])c1ccc(Nc2ccccc2O)c2nonc12,inactive: -0.105%
22,O=C(CN1CCC(C(O)(c2ccccc2)c2ccccc2)CC1)Nc1cc(Cl)ccc1Cl,inactive: 6.4%
23,O=C(NCCN1C(=O)S/C(=C\c2ccc(Cl)c([N+](=O)[O-])c2)C1=O)C1=COCCO1,inactive: -5.13%

# Given as tab-separated lines: part of the list above.
row	Structure (SMILES)	activation
17	C=C(C)C1CC=C(C)/C(=N/NC(=O)COc2ccccc2C)C1 (stereo not given)	inconclusive: 33.1%
18	CCOC(=O)c1c(NC(=O)C2CCCN(S(=O)(=O)c3ccccc3)C2)sc2c1CCCC2 (stereo not given)	inactive: -6.16%
19	CCOC(=O)[C@H]1[C@H]2COc3ccc(Br)cc3[C@@H]2N2C(=O)CN(Cc3ccc(OC)cc3)C(=O)[C@@]12C	inconclusive: 32.6%
20	O=C1c2ccccc2C(=O)N1OS(=O)(=O)c1ccc(F)cc1	inactive: -1.17%
21	O=[N+]([O-])c1ccc(Nc2ccccc2O)c2nonc12	inactive: -0.105%

# Additional entries:

row,Structure (SMILES),activation
1,CCOc1ccc(NS(=O)(=O)c2ccc3[nH]cc(C(=O)NC(C)CC)c(=O)c3c2)cc1 (stereo not given),inconclusive: 42.3%
2,O=C1CC2(CCN(C(=O)c3cccc(Br)c3)CC2)Oc2ccccc21,inconclusive: 36%
3,CCOC(=O)c1c(C)n(C)c2ccc(OCC(O)CNCCc3ccccc3)cc12 (stereo not given),inactive: 10.6%
4,O=S(=O)(c1ccc2nc(Cc3cccc(C(F)(F)F)c3)[nH]c2c1)N1CCOCC1,inconclusive: 57.1%
5,COc1cc(N2CCCC2)c(OC)cc1/C=C1/NC(=S)NC1=O,inconclusive: 52.2%
6,COc1ccc(C(=O)NC(C)CCc2ccccc2)cc1 (stereo not given),inactive: 26.5%
7,CN(NS(C)(=O)=O)c1ncc(C(F)(F)F)cc1Cl,inconclusive: 37.3%
8,FC(F)(F)c1cccc(NC(=S)NCCc2ccccn2)c1,inactive: -11.9%
9,COc1cccc(CC(=O)NCC2COc3ccccc3O2)c1OC (stereo not given),inconclusive: 74.8%
10,CC1Cc2ccccc2N1C(=O)CSc1nnc(Cc2ccccc2)n1CCc1ccccc1 (stereo not given),inconclusive: 37.4%
11,COc1ccc(NC(=O)/C(Cl)=C(/Cl)S(=O)Cc2ccccc2Cl)cn1 (stereo not given),inactive: 5.53%
12,c1ccc(-c2cc3c(N4CCCC4)ncnc3s2)cc1,inconclusive: 48.4%
13,Cc1ccc(-c2cc(C(=O)NN3CCOCC3)c3cc(Br)ccc3n2)o1,inactive: 3.5%
14,COc1ccc(CNc2oc(COc3ccccc3)nc2C#N)cc1,inconclusive: 32.3%
15,O=C(NCCc1cnc[nH]1)c1ccc(-c2ccccc2)cc1,inconclusive: 30.5%
16,Cc1ccc(Sc2ccc(CO)cc2[N+](=O)[O-])cc1,inactive: 26.9%
17,CC1CC(C)CN(C(=O)CCCn2c(=S)[nH]c3ccccc3c2=O)C1 (stereo not given),inconclusive: 69.4%
18,O=C(Cc1cccs1)NCc1ccc(F)cc1,inconclusive: 47.8%
19,CC(C)CCNC(=O)c1ccc(Cn2c(=S)[nH]c3ccccc3c2=O)cc1,inactive: -5.36%
20,COc1ccc(/C=C2\SC(N3CCc4ccccc4C3)=NC2=O)cc1OC,inconclusive: 30.4%
21,O=C(NCCCNC(=O)c1c(F)cccc1F)c1c(F)cccc1F,inactive: 0.0259%

# Some of these compounds in order of formula weight, largest number first.
row,Structure (SMILES),activation
13,Cc1ccc(-c2cc(C(=O)NN3CCOCC3)c3cc(Br)ccc3n2)o1,inactive: 3.5%
17,CC1CC(C)CN(C(=O)CCCn2c(=S)[nH]c3ccccc3c2=O)C1 (stereo not given),inconclusive: 69.4%
21,O=C(NCCCNC(=O)c1c(F)cccc1F)c1c(F)cccc1F,inactive: 0.0259%
